Reference: US20230338340A1, “Methods of Treating Cystic Fibrosis” (The Trustees of Dartmouth College, priority 2020, published 2023)
The structures given here were assigned with low confidence; some may be wrong.

Chains of the proteins cited; added tags and fusions are not shown. Residues count along the entry.
UniProt P98082, 33-178 limits assumed: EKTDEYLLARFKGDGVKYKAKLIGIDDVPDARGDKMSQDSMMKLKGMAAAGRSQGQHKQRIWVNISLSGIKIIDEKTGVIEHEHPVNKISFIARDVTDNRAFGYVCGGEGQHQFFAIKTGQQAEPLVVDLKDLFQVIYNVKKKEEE

Experiments:
Human-Dab2-DH = Human-Dab2-DH (Homo sapiens, UniProt P98082); test: Dab2 FP competition assay via HTS; assay type: binding; details: read-out: Inhibitory activity Dab2 IC50
Procedure: CALP and/or Dab2 inhibition assays were performed in biochemical “mix-and-measure” format in order to evaluate the effects on activation and inhibition of CALP and/or Dab2 by the compounds of the disclosure. Brief assay procedure is provided below. Unless otherwise specified, all of the compounds were obtained from commercial sources.
Dab-2 inhibitors were also identified by FP competition assays via HTS. Human-Dab2-DH, residues 31-191 (Uniprot: P98082), and trDab2-DH (residues 33-178) was subcloned into the pET16b vector via PCR utilizing the restriction enzyme sites of Xhol and BamHI. The construct was designed with a 3C protease cleavage site directly upstream and in-frame with the protein coding sequence. DNA was sequence verified. (0.1 mM) IPTG was used to induce protein expression in E. coli BL21(DE3)RIL cells, after reaching an O.D. of 06. […]
For experiments conducted at the University of Pittsburgh Lab and Drug Discovery Institute, single-dose HTS assays were performed with a library containing ˜220,000 compounds. […] Compound plates containing assay ready 2 μL aliquots of a 1 mM stock solution in DMSO were thawed, reconstituted in FP buffer to a concentration of 30 μM in 3% DMSO, and five μL transferred to low volume assay plates using a Perkin Elmer MDT. […] Plates were read at 1.5-h and 4-h on the Envision multilabel reader.

CAL PDZ = CAL PDZ (Homo sapiens, UniProt Q9HD26); test: CALP fluorescence polarization (FP) competition assay, HTS format with dose-response validation; design: Inhibitory activity CALP at 100 μM: unit not given here

CCC(C)/C=C/C1=CC2=C(Cl)C(=O)C3(C)OC(=O)C(C(=O)C(C)C(C)O)=C3C2=CO1 (stereo not drawn)
IC50 (Human-Dab2-DH): 7.54 µM
Inhibitory activity CALP at 100 μM (CAL PDZ; at 100 μM): −72.96
IC50 (CAL PDZ; read-out: Inhibitory activity CALP IC50): 34.2 µM
